Test results: PubChem BioAssay AID2685 (National Center for Advancing Translational Sciences (NCATS), 2010)
The list shows a part of the results. Shown are side measurements of this screen, not its main read-out; they come without a call. Compounds called inactive in the main read-out are mostly missing here. The note in brackets gives the kind of curve behind each potency; many fits are weak.

Assay: qHTS Assay for Lipid Storage Modulators in Drosophila S3 Cells;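 as to cell number change: cells counted by Cell Tracker Red CMTPX staining in the red channel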
Settings: BODIPY lipid droplet fluorescence, 18-24 h; for cell number change: measured here: cell count max response, cells fed with added oleic acid
How it was run: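 Drosophila S3 cells loaded with oleic acid (400 uM, as added) and compounds at several concentrations; lipid droplets imaged by 488-nm laser-scanning cytometry, 500–530 nm intensity and object ratio to cell channel. Percent activity normalized to 20 uM Triacsin C.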

[1] = measured here: cell number channel AC50, cells fed with added oleic acid
[2] = measured here: lipid fluorescence (Fed channel) AC50, cells fed with added oleic acid

Row | Structure (SMILES) | AC50 [1] | cell number change | AC50 [2]
1 | COc1ccc(NC(=S)N2CCN(S(=O)(=O)c3ccc(F)cc3)CC2)cc1OC | 0.092 µM [falling, full curve, poor fit] |  | 
2 | CN(C)c1ccc(CN(C(=O)c2ccco2)C2CCS(=O)(=O)C2)cc1 (centres undefined) |  | 7.21% | 0.651 µM [rising, single point]
3 | COc1ccc(S(=O)(=O)NCCc2ccc(F)cc2)cc1 |  |  | 0.58 µM [falling, single point]
4 | O=C(Nc1ccc([N+](=O)[O-])cc1)/C(=C/c1cccc([N+](=O)[O-])c1)NC(=O)C1CCCCC1 |  | -0.368% | 8.2 µM [falling, partial curve, poor fit]
5 | Cc1cc(Cl)cc(C)c1OCCn1ccnc1 |  | 16.8% | 2.91 µM [rising, partial curve]
6 | Cc1ccc(CCNC(=O)CN2C(=O)COc3ccccc32)cc1 |  | 3.65% | 
7 | O=C(CSc1n[nH]c(-c2ccccn2)n1)Nc1ccc(F)cc1 |  | 4.17% | 25.9 µM [falling, single point]
8 | CC1CN(c2nc3c(c(=O)n(C)c(=O)n3C)n2Cc2c(F)cccc2Cl)CC(C)O1 (centres undefined) |  | 0.538% | 
9 | COC(=O)c1ccccc1S(=O)c1snnc1C (centres undefined) | 6.51 µM [falling, single point] | 126% | 6.51 µM [falling, single point]
10 | COc1cccc(C(=O)CN2C(=O)C(C)(C)Oc3ccc(C(=O)N4CCCCCC4)cc32)c1 |  | 4.21% | 
11 | CC[n+]1ccc(/C=C/c2ccc(N(C)C)cc2)c2ccccc21 | 23.1 µM [falling, partial curve] | -102% | 1.46 µM [falling, full curve]
12 | COc1ccc(-c2nc3ccccc3s2)cc1O | 1.64 µM [falling, partial curve] |  | 
13 | O=C1c2ccccc2C(Nc2ccc3c(c2)OCCO3)N1Cc1ccc2c(c1)OCO2 (centres undefined) | 0.411 µM [rising, full curve] | 44.6% | 
14 | Cc1sc2nc(CC(=O)N3CCCC3)[nH]c(=O)c2c1C | 0.58 µM [rising, single point] |  | 
15 | O=C(CN1CCN(c2ccccc2)CC1)NC(=O)NCc1ccco1 |  | 2.51% | 2.91 µM [falling, full curve]
16 | O=C(Nc1ccccc1N1CCOCC1)C1=NN(c2ccccc2)C(=O)CC1 |  | -2.93% | 2.31 µM [rising, partial curve]
17 | COc1cc(-c2nc(-c3ccc4c(c3)-c3ccccc3S4(=O)=O)c(-c3ccccc3)[nH]2)cc(OC)c1O |  | 12.2% | 6.51 µM [rising, single point]
18 | Cc1ccc(CSC2=Nc3sccc3C3=NC(=O)CN23)cc1 |  | 2.31% | 2.31 µM [falling, partial curve, poor fit]
19 | NC(=O)Nc1ccc(C(=O)OCC(=O)Nc2sccc2C(N)=O)cc1 | 14.6 µM [rising, partial curve, poor fit] | 62.5% | 
20 | COc1ccc(C)cc1NC(=O)CN1C(=O)COc2ccc(S(=O)(=O)N3CCCCC3)cc21 |  | -5.11% | 
21 | O=C(COC(=O)c1ccc([N+](=O)[O-])s1)NCCc1ccccc1 |  | -14.2% | 1.03 µM [falling, full curve, poor fit]
22 | NS(=O)(=O)c1ccc(NC(=O)COC(=O)COc2ccccc2)cc1 |  | -23.4% | 16.4 µM [rising, single point]

Full records as entered above:
Cc1ccc(CCNC(=O)CN2C(=O)COc3ccccc32)cc1 in the list: cell number change: 3.65%
CC[n+]1ccc(/C=C/c2ccc(N(C)C)cc2)c2ccccc21 in the list: AC50 [1]: 23.1 µM [falling, partial curve]; cell number change: -102%; AC50 [2]: 1.46 µM [falling, full curve]
O=C1c2ccccc2C(Nc2ccc3c(c2)OCCO3)N1Cc1ccc2c(c1)OCO2 (centres undefined) in the list: AC50 [1]: 0.411 µM [rising, full curve]; cell number change: 44.6%
Cc1ccc(CSC2=Nc3sccc3C3=NC(=O)CN23)cc1 in the list: cell number change: 2.31%; AC50 [2]: 2.31 µM [falling, partial curve, poor fit]

Later entries

Row | Structure (SMILES) | AC50 [1] | cell number change | AC50 [2]
23 | O=C(c1ccc(OC2CCN(CCc3ccccc3)CC2)cc1)N1CCCCC1CCCO (centres undefined) |  | 20.9% | 0.651 µM [falling, single point]
24 | CCCn1c(C)cc(C(=O)COc2ccc(-c3nnco3)cc2)c1C |  | -21.4% | 29.1 µM [falling, single point]
25 | CC(C)(C)C(=O)Nc1ccc(C(=O)N/N=C/c2ccccc2OC(=O)c2ccc(Cl)cc2Cl)cc1 |  | 16.3% | 6.51 µM [rising, single point]
26 | Cn1ccc(-c2ccccc2)c(C#N)c1=O |  | 16.4% | 
27 | CCOC(=O)C1=C(COC(=O)COc2ccccc2C#N)NC(=O)NC1C (centres undefined) |  |  | 1.84 µM [falling, partial curve]
28 | COc1cc(C(=O)N/N=C/c2ccccn2)cc(OC)c1OC | 20.6 µM [rising, single point] | 55.5% | 29.1 µM [rising, single point]
29 | COc1cccc(-c2c(C(=O)N/N=C/c3ccc(C)s3)nnn2-c2nonc2N)c1 |  | 34.7% | 
30 | COc1cccc(-c2ccc(NC(=O)C3CCCN(Cc4cnn(C(C)C)c4)C3)cc2)c1 (centres undefined) |  | 4.46% | 29.1 µM [rising, single point]
31 | COc1ccc(N(C(=O)CCl)C(C(=O)NCCc2ccccc2)c2cccs2)cc1Cl (centres undefined) |  | -7.94% | 29.1 µM [falling, single point]
32 | CCOC(=O)C(NC(=O)Nc1ccccc1)(OCC)C(F)(F)F (centres undefined) | 0.461 µM [falling, full curve, poor fit] | -31.9% | 
33 | COCCOC(=O)c1c(NC(=O)COC(=O)Cc2cccc(OC)c2)sc(C(N)=O)c1C |  |  | 2.31 µM [falling, partial curve, poor fit]
34 | CCC(CC)COC(=O)C1=C(C)NC(=O)NC1c1cccc([N+](=O)[O-])c1 (centres undefined) |  | -29.4% | 29.1 µM [falling, single point]
35 | CCOC(=O)c1cnc(SCC(=O)c2ccc3c(c2)OCCO3)nc1N |  | 11.2% | 29.1 µM [rising, single point]
36 | CS(=O)(=O)Nc1ccccc1C(=O)NCC1(N2CCCCC2)CCCCC1 | 32.6 µM [rising, single point] | 33.3% | 
37 | Cc1cc2c(s1)c1cnn(-c3ccccc3)c(=O)c1n2C |  | 28.7% | 
38 | O=C1CCCN1c1ccc(CNS(=O)(=O)c2ccc(F)cc2)cc1 |  | -0.607% | 5.17 µM [falling, full curve, poor fit]
39 | Fc1ccc(-c2cn(-c3ccccc3)c3[n+]2CCS3)cc1 |  | -0.107% | 0.291 µM [falling, full curve, poor fit]
40 | CCNC(=O)CC1SC(=Nc2ccc(C)cc2)N(CC)C1=O (centres undefined) |  | 8.81% | 6.51 µM [rising, partial curve]
41 | CC1CCN(CC(=O)Nc2ccc(S(=O)(=O)N3CCCC(C)C3)cc2)CC1 (centres undefined) |  | -2.11% | 
42 | CCCCN(CC)Cc1c(C)[nH]c2ccccc2c1=O |  | -0.391% | 16.4 µM [falling, single point]
43 | CN(C)S(=O)(=O)c1cccc(-c2csc(=Nc3ccccc3)n2CCCN2CCOCC2)c1 | 1.64 µM [rising, partial curve, poor fit] | 24.7% | 3.66 µM [rising, full curve, poor fit]
44 | Cc1ccc(N2CCN(S(=O)(=O)c3ccc4oc(=O)ccc4c3)CC2)c(C)c1 |  | -12.4% | 6.51 µM [falling, single point]

Row | Structure (SMILES) | AC50 [1] | cell number change | AC50 [2]
45 | CCOC(=O)C1CCCN(Cc2cc(=O)oc3cc(C)ccc23)C1 (centres undefined) |  | -7.14% | 
46 | Cc1ccc(-n2ncc3c(SCc4ccccn4)ncnc32)c(C)c1 | 0.0291 µM [falling, full curve, poor fit] | -34.4% | 
47 | Fc1ccccc1N1CCN(Cc2nc(-c3ccc(Cl)cc3Cl)no2)CC1 |  | 5.42% | 20.6 µM [rising, single point]
48 | Cc1ccccc1OCCCC(=O)Nc1ccc(S(=O)(=O)Nc2onc(C)c2C)cc1 | 11.6 µM [rising, partial curve] | 53.8% | 
49 | CC(Oc1ccc2c(-c3ccccc3)cc(=O)oc2c1)C(=O)NCC1CCC(C(=O)O)CC1 (centres undefined) |  | 23.6% | 
50 | O=C(NCCN1CCN(c2ccccc2)CC1)Nc1cccc(Br)c1 |  | 13.9% | 
51 | CCc1cc(C(=O)c2ccccc2)c(N)s1 |  | -14.4% | 
52 | CCCOc1ccc2c(C)c(CC(=O)OC)c(=O)oc2c1 |  | -3.1% | 3.26 µM [rising, partial curve]
53 | CCOC(=O)CC(=O)CSc1nc(-c2ccccc2)cc(-c2ccccc2)c1C#N |  | 5.87% | 0.366 µM [rising, full curve]
54 | COc1ccc(S(=O)(=O)N(C)CC(=O)NCc2cccnc2)cc1C |  |  | 0.58 µM [rising, single point]
55 | O=C(Oc1c(-c2ccccc2)oc2ccccc2c1=O)c1ccccc1 |  | -6.29% | 29.1 µM [rising, single point]
56 | Nc1ccc(N2CCN(c3ccccc3)CC2)c(F)c1 | 18.4 µM [falling, partial curve, poor fit] | -33.1% | 
57 | COc1cccc(-c2noc(C3CCCN(C(=O)c4ccc(F)cc4)C3)n2)c1 (centres undefined) |  | 19.6% | 
58 | CCCCCSc1ncccc1C(=O)O | 0.00517 µM [rising, full curve, poor fit] | 11.4% | 3.66 µM [rising, single point]
59 | CCN(CC)S(=O)(=O)c1ccc2[nH]c(=O)cc(C(=O)NCC3CCCO3)c2c1 (centres undefined) | 1.46 µM [falling, full curve, poor fit] | -29.6% | 1.84 µM [falling, full curve]
60 | O=C(NCC1CCOCC1)c1cc(COc2cccc(C(F)(F)F)c2)on1 |  |  | 6.51 µM [rising, single point]
61 | Cc1cc(NCCCN2CCOCC2)n2nc(C)c(-c3ccccc3)c2n1 | 20.6 µM [rising, single point] | 58.4% | 6.51 µM [rising, single point]
62 | CCn1nc(-c2ccccc2)c2nc3ccccc3nc21 |  | 12.5% | 13 µM [rising, partial curve, poor fit]
63 | O=C(Nc1ccc(Br)cc1)Nc1cnccn1 |  | -17.7% | 29.1 µM [falling, single point]
64 | C#CC(C)(CC)NC(=O)c1cc(OC)c(OC)c(OC)c1 (centres undefined) |  | 25.7% | 29.1 µM [rising, single point]
